# In patent US5840728A, “Conformationally locked nucleoside analogs as antiherpetic agents” (priority 1997, dated 1998):
# The name of at least one read-out is uncertain.
# System: HCMV (human cytomegalovirus)
# Assay type: cell-based
# Conditions: Table 5
smiles,measurement,value
"Nc1nc(O)c2ncn(COC(CO)CO)c2n1 [GCV, gancyclovir]",Control EC50,0.01 µg/mL
